In patent publication US10091998B2, “Tetrazolinone compound and use thereof” (SUMITOMO CHEMICAL COMPANY, LIMITED, priority 2013, dated 2018):
Some of these results come from one statement about several compounds together.

Assays:
Type in all cases: in vivo
[1] = tested on: barley scald fungus (Rhynchosporium secalis); assay: Test Example 1: barley scald, foliar spray, preventive; settings: 200 ppm spray on barley (MIKAMO GOLDEN); inoculated 2 days after spraying
[2] = tested on: barley net blotch fungus (Pyrenophora teres); assay: Test Example 4: barley net blotch, foliar spray; settings: 200 ppm spray on barley (MIKAMO GOLDEN); inoculated 2 days after spraying
[3] = tested on: kidney bean stem rot fungus (Sclerotinia sclerotiorum); assay: Test Example 5: kidney bean stem rot, foliar spray; settings: 200 ppm spray on kidney bean (NAGAUZURA SAIYTOU); investigated four days after inoculation
[4] = tested on: wheat leaf blotch fungus (Septoria tritici); assay: Test Example 6: wheat leaf blotch, foliar spray; settings: 200 ppm spray on wheat (APOGEE); inoculated 4 days after spraying
[5] = tested on: cucumber target spot (Corynespora cassiicola); assay: Test Example 9: cucumber target spot, foliar spray; settings: 200 ppm spray on cucumber (SAGAMI HANJIRO); inoculated 1 day after spraying
[6] = tested on: cucumber anthracnose fungus (Colletotrichum lagenarium); assay: Test Example 10: cucumber anthracnose, foliar spray; settings: 200 ppm spray on cucumber (SAGAMI HANJIRO); inoculated 1 day after spraying
[7] = tested on: soybean rust fungus (Phakopsora pachyrhizi); assay: Test Example 8: soybean rust, foliar spray; settings: 200 ppm spray on soybean (KUROSENGOKU); inoculated 2 days after spraying

Measured: area of lesion on the treated plant relative to that on an untreated plant

Cc1cccc(-n2nnn(C)c2=O)c1OCc1ccccc1Oc1ccccc1 [Present Compound 4]
not listed: [6] | [7]
≤ 30%: all other assays above

Cc1ccccc1COc1c(C)cccc1-n1nnn(C)c1=O [Present Compound 6]
≤ 30%: [1] | [2] | [5] | [6]

Cc1cccc(-n2nnn(C)c2=O)c1OCc1cccc(-c2ccccc2)c1 [Present Compound 7]
≤ 30%: [1] | [2] | [4] | [5]

Cc1cccc(-n2nnn(C)c2=O)c1OCc1cccc(Oc2ccccc2)c1 [Present Compound 8]
not listed: [2] | [7]
≤ 30%: all other assays above

Cc1cccc(-n2nnn(C)c2=O)c1OCc1ccc(-c2ccccc2)cc1 [Present Compound 10]
not listed: [7]
≤ 30%: all other assays above

Cc1cccc(-n2nnn(C)c2=O)c1OCc1ccc(Oc2ccccc2)cc1 [Present Compound 11]
not listed: [3] | [7]
≤ 30%: all other assays above

Cc1cc(-c2ccccc2)ccc1COc1c(C)cccc1-n1nnn(C)c1=O [Present Compound 13, 1-{2-[(4-phenyl-2-methylphenyl)methoxy]-3-methylphenyl}-4-methyl-1,4-dihydrotetrazol-5-one]
≤ 30%: all assays above

Cc1cccc(-c2ccc(COc3c(C)cccc3-n3nnn(C)c3=O)c(C)c2)c1 [Present Compound 14]
not listed: [7]
≤ 30%: all other assays above

Cc1ccc(-c2ccc(COc3c(C)cccc3-n3nnn(C)c3=O)c(C)c2)cc1 [Present Compound 15]
not listed: [7]
≤ 30%: all other assays above

Cc1cc(-c2ccccc2C)ccc1COc1c(C)cccc1-n1nnn(C)c1=O [Present Compound 17]
not listed: [7]
≤ 30%: all other assays above

Cc1cc(-c2ccccn2)ccc1COc1c(C)cccc1-n1nnn(C)c1=O [Present Compound 18, 1-(2-{[4-(pyridin-2-yl)-2-methylphenyl]methoxy}-3-methylphenyl)-4-methyl-1,4-dihydrotetrazol-5-one]
not listed: [5]
≤ 30%: all other assays above

Cc1cccc(-c2ccc(COc3c(C)cccc3-n3nnn(C)c3=O)c(C)c2)n1 [Present Compound 19]
not listed: [5]
≤ 30%: all other assays above

Cc1cc(-c2cccc(Cl)n2)ccc1COc1c(C)cccc1-n1nnn(C)c1=O [Present Compound 20]
not listed: [5]
≤ 30%: all other assays above

Cc1cccc(-c2ccc(COc3c(C)cccc3-n3nnn(C)c3=O)cc2)n1 [Present Compound 23, 1-(2-{[4-(6-methylpyridin-2-yl)phenyl]methoxy}-3-methylphenyl)-4-methyl-1,4-dihydrotetrazol-5-one]
not listed: [5] | [7]
≤ 30%: all other assays above

Cc1cccc(-n2nnn(C)c2=O)c1/C=C/c1ccc(-c2ccccc2)cc1 [Present Compound 26, 1-{2-[2-(biphenyl-4-yl)ethenyl]-3-methylphenyl}-4-methyl-1,4-dihydrotetrazol-5-one]
not listed: [5] | [7]
≤ 30%: all other assays above

Cc1cc(-c2ccccc2C)ccc1/C=C/c1c(C)cccc1-n1nnn(C)c1=O [Present Compound 28]
not listed: [3] | [5]
≤ 30%: all other assays above

Cc1cccc(-c2ccc(/C=C/c3c(C)cccc3-n3nnn(C)c3=O)c(C)c2)c1 [Present Compound 29]
not listed: [5] | [7]
≤ 30%: all other assays above

Cc1ccc(-c2ccc(/C=C/c3c(C)cccc3-n3nnn(C)c3=O)c(C)c2)cc1 [Present Compound 30]
not listed: [3]
≤ 30%: all other assays above

Cc1cccc(-n2nnn(C)c2=O)c1OCc1ccn(-c2ccc(Cl)cc2)n1 [Present Compound 56, 1-(2-{[1-(4-chlorophenyl)-1H-pyrazol-3-yl]methoxy}-3-methylphenyl)-4-methyl-1,4-dihydrotetrazol-5-one]
≤ 30%: [1] | [2] | [4] | [5]

COc1ccccc1-c1csc(/C=C/c2c(C)cccc2-n2nnn(C)c2=O)n1 [Present Compound 57, (E)-2-{2-[1-(4,5-dihydro-4-methyl-5-oxo-1H-tetrazol-1-yl)-3-methylphenyl-2-yl]ethenyl}-4-(2-methoxyphenyl)thiazole]
not listed: [5] | [7]
≤ 30%: all other assays above
